Reference: PMC3037368

T1: AtBPC6 (Arabidopsis thaliana BASIC … 6), full-length, yeast two-hybrid fusion (Arabidopsis thaliana) (UniProt Q8L999)
T1 sequence: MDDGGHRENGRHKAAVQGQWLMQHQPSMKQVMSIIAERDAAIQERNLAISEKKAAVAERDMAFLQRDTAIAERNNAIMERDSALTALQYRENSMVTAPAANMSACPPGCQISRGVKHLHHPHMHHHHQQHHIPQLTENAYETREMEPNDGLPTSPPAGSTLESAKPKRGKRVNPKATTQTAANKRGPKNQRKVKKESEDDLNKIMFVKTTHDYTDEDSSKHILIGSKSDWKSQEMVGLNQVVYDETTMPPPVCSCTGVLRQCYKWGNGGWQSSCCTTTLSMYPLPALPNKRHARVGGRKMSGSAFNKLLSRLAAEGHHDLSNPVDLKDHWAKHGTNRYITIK


Assays:
[1] = target: T1, AtBPC6 (Arabidopsis thaliana BASIC … 6), full-length, yeast two-hybrid fusion (Arabidopsis thaliana); experiment: two-hybrid; AD (pGADT7-DEST) and BD (pGBKT7-DEST) fusions in yeast PJ69-4A; growth on selective media (CSM-L-,W-,Ade-) and β-galactosidase reporter activity (MUG substrate, n = 9), background from empty AD-clone combinations
[2] = target: BPC6-ΔC fragment of AtBPC6, yeast two-hybrid fusion (Arabidopsis thaliana); experiment: as above

Molecule | binding [1] | binding [2]
BPC6-ΔC fragment of AtBPC6, yeast two-hybrid fusion (Arabidopsis thaliana) (domain or fragment) | binds | –
AtBPC4 (Arabidopsis thaliana BASIC … 4), yeast two-hybrid fusion (protein, UniProt Q8S8C6 1-296) MENGGQYDNARFKPDYFKGAQSMWNMIPQHQIKEQHNALVMNKKIMSILAERDAAVHERNQAVSAKKEAVAARDEALQQRDKALSERDKALIERDNAYAALQHHENSLNFALSGGKCVDGDDCFGIGEPHKLEVFPLSTIPPEVTNTKVVNKRKKENKQGLSKVKKVGEDLNRRVPAPGKKSRTDWDSQDVGLNLVTFDETTMPVPMCSCTGSTRQCYKWGNGGWQSSCCTTTLSQYPLPQMPNKRHSRMGGRKMSGNVFSRLLSRLSAEGYDLSCPVDLKDYWARHGTNRYITIK | – | binds

Results are given in words; binding and its absence hold for the method and conditions named. A result given as binding can be weak or reduced; the word gives no strength. Tags and fused reporters may be left off the sequences shown.
